# The supplement of paper PMC3334620
# Whole data set: some 33,000 sequences, median “E-score (-0.5 to 0.5)” near -0.0059, cut for the highest 2% near 0.26. The list shows a part of the results.
# Target: T1, Cin5 (UniProt P40917)
# T1 sequence: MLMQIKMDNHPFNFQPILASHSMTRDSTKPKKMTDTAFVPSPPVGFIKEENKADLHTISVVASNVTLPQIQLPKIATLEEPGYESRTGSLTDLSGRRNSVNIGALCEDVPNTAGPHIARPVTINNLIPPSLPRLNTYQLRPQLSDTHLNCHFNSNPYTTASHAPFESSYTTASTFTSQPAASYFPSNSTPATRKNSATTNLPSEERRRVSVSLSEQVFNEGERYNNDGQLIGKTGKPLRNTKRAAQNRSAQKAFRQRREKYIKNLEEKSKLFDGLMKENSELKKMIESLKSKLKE
# Test: PBM E-score (8-mer binding enrichment) (E-score (-0.5 to 0.5)); higher = stronger / more preferred TF binding
# Settings: protein concentration: 100 nM; construct: GST-full length
# In short: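 E-scores (a modified Wilcoxon-Mann-Whitney statistic) were assigned by the Universal PBM Analysis Suite to every ungapped eight-base word pooled with its reverse complement. The input came from universal all-10-mer Agilent arrays made double-stranded by primer extension and probed with GST-tagged yeast transcription factors at about 100-200 nM. Fluorescent anti-GST detected bound protein, and masliner normalised the scans.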
row,Sequence,PBM E-score
1,CGTAGTCC,-0.266
2,CCCTTATA,0.0599
3,AAGGAAAG,-0.00545
4,AACGGGGC,0.108
5,CTCAAGTC,-0.196
6,ATTTTCTC,0.0514
7,AGTAGCCA,-0.261
8,AGATTCGA,-0.0633
9,AAAGACCT,-0.03
10,GATTGATA,0.213
11,CTGATAGA,0.0598
12,CATGCTGC,-0.128
13,CTCATGCA,0.0777
14,TTATTAAA,0.278
15,GGCATGCC,0.0373
16,CTCTATCC,-0.115
17,GGTTCTAC,-0.115
18,CTTGCTCC,-0.183
19,GTCGACTA,0.189
20,AATTCAAG,0.0197
21,ACTTGGGA,-0.175
22,GCTCAAAA,-0.00649
23,ATAAGATG,0.213
24,CATATGTC,-0.08
25,ATACCACC,0.149

# Quoted from the listing.
# Under PBM E-score, AAGGAAAG is listed with -0.00545
# Under PBM E-score, ATTTTCTC is listed with 0.0514
# Under PBM E-score, CATATGTC is listed with -0.08
# Under PBM E-score, GATTGATA is listed with 0.213
# Under PBM E-score, GCTCAAAA is listed with -0.00649
# Under PBM E-score, CCCTTATA is listed with 0.0599

# (listing goes on)

row,Sequence,PBM E-score
1,CATGCTAG,-0.0431
2,GGCTCACC,-0.274
3,TGCAACAA,0.0117
4,GTATTAGA,0.234
5,GCGGAGCC,-0.153
6,TCAAACCA,0.193
7,ACCAGCAG,-0.195
8,CACTCTAC,0.0729
9,CGGTGGTC,-0.098
10,ACATTCAT,0.147
11,AGCCAGGA,-0.0826
12,ATCGGGCA,-0.161
13,GTAGACAC,0.0248
14,ACCGATGC,0.0455
15,CAAGAGCG,-0.00062
16,ATGACTAA,0.235
17,CCTGGGGA,-0.302
18,CGGTGTGA,0.0609
19,GAATGCGC,0.124
20,ATATGATC,0.258
21,AGAGCGGC,0.00132
22,ATTGCCAA,0.0338
23,GTGAAGCA,0.00998
24,GCCAAAGA,-0.109
25,ACAGGCAA,0.0402

row,Sequence,PBM E-score
1,GACGGGTA,-0.138
2,CATAGGGC,-0.175
3,CATTCAGG,-0.164
4,AATGTGGA,0.0413
5,ACCGTATG,-0.00304
6,ACCAAGAT,0.146
7,AGTGAAGG,0.0101
8,CCACCAAA,-0.0215
9,CCATCTAG,-0.126
10,CGTTTACA,-0.0821
11,GATACTGA,0.124
12,GCTGCTAC,-0.221
13,GGGCCGAC,-0.23
14,CCCATTAC,0.137
15,ACTCGGCG,-0.141
16,CTTGCTAA,-0.148
17,CCGGGGCA,-0.193
18,AAAACCCT,0.0401
19,CCATTCAC,-0.00131
20,AGCCCCAT,-0.0677
21,CCATGGGA,0.0434
22,CCTGGGTA,-0.277
23,CATGAGAA,0.104
24,CTTCCGTC,-0.0172
25,ACCAACCA,-0.0451

row,Sequence,PBM E-score
1,CGTCGTTC,0.151
2,CAGGGACC,-0.251
3,CATGCGAG,0.0486
4,AGCTTCAG,-0.115
5,AAGAAAGG,-0.165
6,AGAAAATG,-0.00112
7,GCTGAGCC,-0.0662
8,ACAGGGAT,0.0409
9,ATCGAAGC,0.00395
10,CACACCGA,-0.05
11,GGTTGACA,-0.0682
12,ACATAACT,0.197
13,CAGGTAAA,0.216
14,ACGCGAGA,0.087
15,GCAAACGA,0.0468
16,CTATCTTC,0.157
17,GAGCAAAC,0.0584
18,AGGACTAT,-0.0847
19,GAAGCGGA,0.0323
20,CCCGGCGA,-0.0713
21,CCCCTAAC,-0.13
22,CATCACAG,-0.0436
23,ATGACCAT,0.11
24,CACGAAGG,-0.169
25,AACGACGT,0.0511

row,Sequence,PBM E-score
1,CTGCATGA,-0.106
2,CCAACGCG,-0.086
3,AACGCCAT,0.075
4,AGTATATG,0.183
5,CATTGACA,-0.104
6,CCCTCGTA,-0.00454
7,AGGGCGTG,-0.224
8,CGCCCGGC,-0.149
9,GGAACCGA,0.00157
10,CCAATGAA,-0.134
11,CCCCCTAC,-0.394
12,CGTGTATC,0.0236
13,ACCACTGA,-0.186
14,ATATAGTC,0.258
15,GCTGAACC,-0.16
16,AAGATTCC,0.115
17,GGAGTACC,-0.0274
18,ATGAAATC,0.179
19,ACACCCGA,0.0844
20,CGAGAGAA,-0.0194
21,CTCGTTTC,0.00595
22,CGAGGCAC,-0.317
23,CCGTAATA,0.203
24,GGAATTAC,0.223
25,AATAGGAT,0.231

row,Sequence,PBM E-score
1,CGCTCTCA,-0.124
2,TACGTTGA,0.218
3,AGAATCCT,-0.158
4,TAGTGTCA,0.107
5,AGCTTCAA,-0.0385
6,TCCCGGAA,0.216
7,ATTTTAAC,-0.0252
8,ATTCACCC,0.111
9,AAGACAGC,-0.111
10,GAAATCGA,0.0763
11,CCCTTCGA,-0.257
12,AGAACTCC,-0.0874
13,GAGGTTGC,-0.195
14,GTGGGGTA,0.181
15,ACTCGTTG,-0.0803
16,AACATGAA,0.0944
17,TGTTCGAA,-0.0689
18,AAGCAATC,0.165
19,AAAGTAGC,-0.0578
20,ACTCTGTA,-0.0694
21,ATGACGGG,0.0538
22,ATTACATG,0.297
23,CATGGAAG,-0.0265
24,AACCCCCT,-0.473
25,CGTTATCA,0.15

row,Sequence,PBM E-score
1,CTTATGAA,0.0936
2,TACAGTAA,0.14
3,AAGTTTTA,0.165
4,GTTCGAAA,-0.00462
5,ATAGGTTC,0.00593
6,CCGCCATA,0.0972
7,CATCTCCG,0.2
8,AAGCCACA,-0.104
9,CCCACTCC,-0.0523
10,ATTCTTCC,0.0301
11,GCACACCA,-0.117
12,CCCGGAGC,0.00401
13,GTCCATTA,0.109
14,TCGCGTCA,0.102
15,ATGTCTGC,-0.125
16,AACGACCC,-0.0429
17,GCACTATA,0.0376
18,CGCGATAA,0.0927
19,CAGATGGA,0.234
20,ACTACACA,0.217
21,ATGAAAAC,0.135
22,TGACAGAA,0.0176
